Laboratory results: patent US7560262B2, “Polynucleotide sequences encoding alkaline α-galactosidases and methods of using same” (The State of Israel - Ministry of Agriculture & Rural …, priority 2002, dated 2009)

Test: pH and temperature dependence of α-galactosidase activity of recombinant Aga-I and Aga-II
Assay type: biochemical
Experimental: α-galactosidase assay of E. coli extracts—α-galactosidase activity was assayed as described by Smart and Pharr [Smart and Pharr (1980) Plant Physiol. 66:731-734] and as performed by Gao and Schaffer (1999) Plant Physiol. 119:979-987]. Reaction was initiated by adding 50 μl enzyme aliquot to 200 μl McIlvaine buffer (made by mixing stock solutions of 0.1M citric acid and 0.2M sodium hydrogen phosphate to achieve pH of 5.0 and 7.0 for the assay of acid and alkaline activity, respectively) and 50 μl substrate (final concentration, 5 mM for pNPG and 10 mM for the natural substrates). […] Substrates used were the synthetic substrates based on p-nitrophenol (pNP-sugars), including the pNPa-gal (Sigma) and the natural substrates stachyose, raffinose and melibiose. In addition, substrate concentration dependence of the reaction was measured by varying the substrate concentrations from 0-10 mM. Km and Vmax values were calculated using Lineweaver-Burk plots.

B1: Aga-I: Cucumis melo alkaline-α-galactosidase I, SEQ ID NO: 6, encoded by SEQ ID NO: 5 (protein)
chain: MTVGAGITISDANLTVLGNRVLSDVHNNITLTAAPGGGVMNGAFIGVQSDQIGSRRVFPIGKLIGLRFLCAFRFKLWWMTQRMGCSGQEVPFETQFLVVETRDGSNIAGNGEEGDAVYTVFLPILEGDFRAVLQGNDNNEIEICLESGDPSVDGFEGSHLVFVGAGSDPFETITYAVKSVEKHLQTFAHRERKKMPDILNWFGWCTWDAFYTDVTSDGVKKGLESFENGGIPPKFVIIDDGWQSVAKDATSADCKADNTANFANRLTHIKENYKFQKDGKEGERIENPALGLQHIVSYMKEKHATKYVYVWHAITGYWGGVSAGVKEMEQYESKIAYPVASPGVESNEPCDALNSITKTGLGLVNPEKVFNFYNEQHSYLASAGVDGVKVDVQNILETLGAGHGGRVKLARKYHQALEASISRNFQDNGIISCMSHNTDGLYSSKRNAVIRASDDFWPRDPASHTIHIASVAYNSLFLGEFMQPDWDMFHSLHPMAEYHGAARAVGGCAIYVSDKPGQHDFNLLKKLVLPDGSILRAKLPGRPTKDCLFTDPARDGKSLLKIWNLNDLSGVVGVFNCQGAGWCKVGKKNLIHDENPDTITGVIRAKDVSYLWKIAGESWTGDAVIFSHLAGEVVYLPQDASMPITLKPREFDVFTVVPVKELVNDIKFAPIGLIKMFNSGGAVKEMNHQPGSSNVSLKVRGSGPFGAYSSSKPKRVAVDSEEVEFMYDEGGLITIDLKVPEKELYLWDIRIEL
modifications: Cucumis melo
- temperature above which activity was significantly decreased (data not shown): above 40 °C
- temperature range of activity (recombinant enzyme): 30-37 °C
